The results in this text go back to PubChem BioAssay AID1347426 (Functional Genomics Laboratory (NCATS/FGL), 2020).

The whole screen tested about 31,000 sequences, of which about 1,400 (4.5%) were called active.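 The calls were made as follows: active = median seed-adjusted z-score above 1 or below -1; inactive = the rest.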 The list shows a part of the results.

The assay can be described thus: Novel Modifiers of Survival Motor Neuron (SMN) Protein: Gene Identification via Genome-wide siRNA Screen.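 Also: luminescence tracks full-length SMN protein made from the SMN2 reporter.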 As to conditions: HEK293T SMN2-luciferase reporter, siRNA knockdown, 72 h; actives lie on both sides. The gist of the method: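 HEK293T cells stably carrying an SMN2 promoter/splicing cassette–luciferase reporter were reverse-transfected with 1 pmol siRNA per well (druggable-genome library, 3 siRNAs per gene) and grown 72 h at 37 °C. Luminescence, normalized to negative-control siRNA and log10-transformed, was scored as MAD.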
As to UGAAGUCUGUCGCUAUAAATT against TAP2, the median seed-adjusted z-score was inactive: -0.768. In the case of AGGUCAGGAUUGACAAUGATT against RIT2, the median seed-adjusted z-score was inactive: 0.253. Turning to CUAUCAGUACAUUACGGUATT against KIF3A, the median seed-adjusted z-score was inactive: 0.119. Take GAAGGACCCAGAUCUCUUUTT against ADCK1: the median seed-adjusted z-score is inactive: -0.177. Consider GGUCUGGAUCGAUUCACUUTT against CACNG6, for which the median seed-adjusted z-score was inactive: -0.0499. For the sequence GCAACUCCUUAUCUAGAUATT against PPIL6, the median seed-adjusted z-score is inactive: -0.215. For GAACUAGCACGCAUCAAGATT against PPM1G, the median seed-adjusted z-score was inactive: 0.073. For GAACGAGCUGGAUCCAUUATT against ARSF the value was inactive: 0.111; for GGAGCAGUAUCAAACUCUATT against PCGF6, inactive: 0.536.

With CCCUUCUGGUUGGACGAUATT against TRIB1, the median seed-adjusted z-score is inactive: 0. GGUACCUACUCAGAACCUATT against AKR1D1: the median seed-adjusted z-score is inactive: 0.211. For GCACAUGACAAUGGACCAATT against VKORC1, the median seed-adjusted z-score was inactive: -0.754. For CAAUGUCCCAAGAUAAAGATT against PRPSAP1, the median seed-adjusted z-score was inactive: 0.224.

Take UUUCCAAACAAGUACCUAATT against CKS2: the median seed-adjusted z-score was inactive: 0.0907. As for GACCUGUCACAGAACCAGATT against VASN, the median seed-adjusted z-score was inactive: 0.213. As for GCAGUAUCGAGCUUCCGAATT against ACAD10, the median seed-adjusted z-score was inactive: -0.269. Turning to GAGAGCACCUUAUAAGACATT against IARS2, the median seed-adjusted z-score was inactive: -0.404. On to GCAUUCGGGUGGUUGAUAATT against RAPGEF1, for which the median seed-adjusted z-score was inactive: 0.304.

Take GAAGGAACGCGAACCCGUATT against SARM1: the median seed-adjusted z-score is inactive: 0.343. With GGCACAUCAAGAUCGCUGATT against CAMKK2, the median seed-adjusted z-score was inactive: -0.121.

Turning to CCUCGGUGCUUACAACAGATT against SLC22A4, the median seed-adjusted z-score was inactive: -0.474. Turning to CCUGAUUGUUGGGAACCGATT against KLHL1, the median seed-adjusted z-score was inactive: 0.067. For GCCUACCAGAACCCACAGATT against TBX6 the value was inactive: 0.144; for GAAAUCGACGUGGUAAUUATT against DERA, inactive: -0.197; for GAAACGAGGAGUACAAUAATT against ORM1, inactive: 0.206. As to GCCUAUAUUCCAUCAGUUUTT against PTPLB, the median seed-adjusted z-score is inactive: 0.0451.

Take GAGUUAUACGAUCCAUGUATT against TXNL4A: the median seed-adjusted z-score is inactive: -0.42.

Turning to CUCCAUUCCUGGUAUAGAATT against XRCC5, the median seed-adjusted z-score was active: -1.11. On to CCGGCGAUGUUAAUGUCAATT against ALG11, for which the median seed-adjusted z-score is inactive: 0.183. Then CCUGUAGACAGCAUCAAAATT against METTL2B, with inactive: 0.769; and CCACCUUGGAUGUUACCAATT against EIF2S3, with inactive: -0.0572; and GUCUAAAGGCCUCUGGAUATT against WNT6, with inactive: 0.027.

For UCGUCUACCUGGAGAUUGATT against NOTCH1, the median seed-adjusted z-score was inactive: 0.116. On to GCUACACACCCUACACGAATT against OSGIN1, for which the median seed-adjusted z-score is inactive: -0.131. GGUCUCCACAAGUAUCUGATT against PDLIM3: the median seed-adjusted z-score was inactive: -0.297.

In the case of CAGACUUUGUGAUAAGGCUTT against GPRC5A, the median seed-adjusted z-score is inactive: -0.56.

For GCAACUGGAAGGAACGGAUTT against FXYD5, the median seed-adjusted z-score is inactive: -0.0885. For CUCUUAUCCUGGGAAAUUATT against ASCL3, the median seed-adjusted z-score was inactive: 0.0929. In the case of GGCUAUUGCUUGAAGAGUATT against LGTN, the median seed-adjusted z-score was inactive: 0.491. CAGUCAGAGUAGGAAAUAATT against ANAPC10: the median seed-adjusted z-score was inactive: 0.946.

Regarding GGUUGAUUGCCUUACGUGATT against SMC5, the median seed-adjusted z-score was inactive: 0.0666. In the case of GCAUGGUGAAUUACUGUGATT against TRIM16, the median seed-adjusted z-score was inactive: 0.345.

Take GUAAGAACGAGAUCCUGGATT against KRT82: the median seed-adjusted z-score was inactive: 0.129. On to GGAUGAUCACUACAUGAUUTT against OBSCN, for which the median seed-adjusted z-score is inactive: -0.798. With GGGAUGCAAUACUUCAGUUTT against MCART1, the median seed-adjusted z-score is inactive: -0.605. Regarding GCACGUAUGACAAAGCGAUTT against PTPRJ, the median seed-adjusted z-score was inactive: 0.0522. In the case of CAGCUUAAAUGGUUGUAGATT against PAPOLG, the median seed-adjusted z-score is inactive: 0.0674.

As for GUACGUAUGCAACCGAUUATT against SLC1A4, the median seed-adjusted z-score is inactive: 0.209.

As to UAUUUUCCCUGAGCCUAUATT against SFTPA2B, the median seed-adjusted z-score is inactive: -0.016. Then CAACCUCCCUACCACCUGATT against UBE2L6, with inactive: -0.455.

Consider GAUCUGUGGUUGCAAACGATT against TRMT1, for which the median seed-adjusted z-score was inactive: -0.224. As to CCACGAAGAAGAGAUCAUATT against PRIM2, the median seed-adjusted z-score was inactive: -0.0161.

On to ACAUUGAUUUCAUGGAGUATT against GUCA1A, for which the median seed-adjusted z-score is inactive: 0.101. In the case of CUUUAACGGUGAAUAUGCATT against PSPH, the median seed-adjusted z-score is inactive: -0.518. In the case of GAUCGGCACUUACACCUGUTT against OPHN1, the median seed-adjusted z-score was inactive: 0.692. Take GGAGGAGGUUAAGAACUCATT against CAMKK1: the median seed-adjusted z-score is inactive: 0. Then GAAGCAUUGCUUACGCUGATT against PKP2, with inactive: -0.0809; and GGUUCCAUCUGGAUAUGGATT against SEC24B, with inactive: -0.493. Consider CCUUACCUGUAAACAGAGATT against ESR2, for which the median seed-adjusted z-score was active: -1.1. In the case of UCUUCUUGAUGGAUCUGAATT against PON3, the median seed-adjusted z-score is inactive: -0.0823. Consider CAACUACAGCUGCUAUACATT against RBMS1, for which the median seed-adjusted z-score is inactive: 0.798. In the case of GCACAGGCAUCAUCGGGAATT against SGSH, the median seed-adjusted z-score is inactive: 0.383. For the sequence CCGUCAUCCUGAUUGAUGATT against FUT11, the median seed-adjusted z-score was inactive: -0.15. With GCGCACAACGGAAACAAUATT against MEX3B, the median seed-adjusted z-score was inactive: -0.0576. Then CCACAGUACUCCAAUCCGATT against SATB2, with inactive: -0.389; and GGGAUAUCAGUGUAUGUCATT against ABCC12, with inactive: 0.204. As for GUGCUAUGUUGGAAACCAATT against FZD4, the median seed-adjusted z-score was inactive: 0.0695.

As to GUGUCGUACUCACAUCCAUTT against PTCH2, the median seed-adjusted z-score was inactive: -0.191.

Regarding ACAAUCCUGUACAAACUGATT against ARF5, the median seed-adjusted z-score is inactive: -0.507. On to GCAUUCUGCCCUAUUCAUUTT against RHEBL1, for which the median seed-adjusted z-score is inactive: -0.268. For CUUGUGUUCUGAGAAUACATT against KRT83, the median seed-adjusted z-score is active: 1.15.

For UCUCUGAAGUCAAACCCAATT against MCM7, the median seed-adjusted z-score is inactive: 0.0993.

Regarding AGCUGAGUGUGGUUGAUUUTT against CD8B, the median seed-adjusted z-score is inactive: 0.174.

Regarding GGCUCUGACUACAAACUGATT against AP3S2, the median seed-adjusted z-score is inactive: 0.521.

On to GGUCUUCGCUAGCAUCUCATT against CLN3, for which the median seed-adjusted z-score was inactive: 0.105. With CAGUCGUCGGUUCCACAUATT against EREG, the median seed-adjusted z-score was inactive: 0.29. As to AGUCUGUCCGAGUACUUCATT against LFNG, the median seed-adjusted z-score was inactive: -0.13. Then GAGGCGCACUACAAAGGUATT against ZNF385A, with inactive: -0.968; and GGAAACUCGUGGACUAUGATT against BIN2, with inactive: 0.205; and UACCGUCCCUCUUCAGUAATT against CASP7, with inactive: 0.213.

On to CAGAGUAUGUAAAUAGACATT against CAPRIN1, for which the median seed-adjusted z-score is active: 1.36.

Turning to GGAAUAUUGGUGAACGAUATT against ZCCHC8, the median seed-adjusted z-score is inactive: 0.356. Turning to GGUACUCCAGAGUAUAACATT against CMYA5, the median seed-adjusted z-score was inactive: -0.858.

As to GCAAUAAACCCAGAACUCUTT against KIF2C, the median seed-adjusted z-score is inactive: 0.0122.

On to CAUUCGGCAUGAACCAUGATT against ADAMTS10, for which the median seed-adjusted z-score is inactive: 0.856.

On to GCAGAAAUCAAAUUGAAGATT against QKI, for which the median seed-adjusted z-score was inactive: -0.206. GCACGUACCGCUUCGAAAATT against SLC4A10: the median seed-adjusted z-score was inactive: 0.026. As to CCAACAUUGUUAAGGUGAUTT against TIAM2, the median seed-adjusted z-score was inactive: -0.0239. For the sequence AGACAGCUAUGUAUCCACUTT against ZBTB45, the median seed-adjusted z-score is inactive: 0. For the sequence GGACCUCCAUCGUGUUUGATT against SLC29A4, the median seed-adjusted z-score is inactive: 0.0192.

For GAGAUGCGCAAAUUCACUCTT against IP6K2, the median seed-adjusted z-score was inactive: -0.193. With CCACUACUAUAGUAAAGAATT against MADD, the median seed-adjusted z-score is inactive: 0.363.

Consider GUUUCAGAUUGGUAUACGATT against CSTF2, for which the median seed-adjusted z-score was inactive: 0.586. On to GGUCAGUUCUGGGAAGAUUTT against SLC27A3, for which the median seed-adjusted z-score is inactive: -0.341. Turning to GACAUAUCUUGGAACUUCUTT against CASP14, the median seed-adjusted z-score was inactive: 0.702. On to CGAAAGGAGUGCUACGCUATT against KIF19, for which the median seed-adjusted z-score was inactive: 0.342.

Take ACAUCAAGUGUGCACGUAATT against PRDM12: the median seed-adjusted z-score is inactive: 0.245. Consider GAACUGGACUUAUUUGAUUTT against PRKY, for which the median seed-adjusted z-score was inactive: 0.168. GAGCCUUACCAUCAAACUUTT against PPP1R11: the median seed-adjusted z-score is inactive: -0.498. Consider CCACAGAGAUAAGCAGUCATT against IL15RA, for which the median seed-adjusted z-score was inactive: -0.0113. As to GCAUAUCCACACCACCCAATT against KRTAP5-6, the median seed-adjusted z-score was inactive: 0.185. In the case of CCUCCUAGAUGAUAUCAGUTT against SOCS7, the median seed-adjusted z-score was inactive: 0.179. Consider GUCAUGACAUGUUACCCAATT against TTBK2, for which the median seed-adjusted z-score was inactive: 0.423.

Take GGAGUUUGCGUUUGAGGUATT against PLCD1: the median seed-adjusted z-score was inactive: -0.0473. As for CAAUCUGUCACGUAAGUCATT against EXTL3, the median seed-adjusted z-score was inactive: -0.353.

AAAUGAUACAUACUGGAAATT against ZNF140: the median seed-adjusted z-score was inactive: 0.587. Regarding GCUUCUAUGAGUACCAGAATT against KLHL20, the median seed-adjusted z-score was inactive: -0.0828.
